Measured values reported in PMC7545832.
No constants are given. Whether binding was seen depends on the method and setting. Binding seen in cells or lysates may run through a third protein. Sequences can lack the tags named with a protein.

Chains of the proteins cited; added tags and fusions are not shown.
UniProt Q13485: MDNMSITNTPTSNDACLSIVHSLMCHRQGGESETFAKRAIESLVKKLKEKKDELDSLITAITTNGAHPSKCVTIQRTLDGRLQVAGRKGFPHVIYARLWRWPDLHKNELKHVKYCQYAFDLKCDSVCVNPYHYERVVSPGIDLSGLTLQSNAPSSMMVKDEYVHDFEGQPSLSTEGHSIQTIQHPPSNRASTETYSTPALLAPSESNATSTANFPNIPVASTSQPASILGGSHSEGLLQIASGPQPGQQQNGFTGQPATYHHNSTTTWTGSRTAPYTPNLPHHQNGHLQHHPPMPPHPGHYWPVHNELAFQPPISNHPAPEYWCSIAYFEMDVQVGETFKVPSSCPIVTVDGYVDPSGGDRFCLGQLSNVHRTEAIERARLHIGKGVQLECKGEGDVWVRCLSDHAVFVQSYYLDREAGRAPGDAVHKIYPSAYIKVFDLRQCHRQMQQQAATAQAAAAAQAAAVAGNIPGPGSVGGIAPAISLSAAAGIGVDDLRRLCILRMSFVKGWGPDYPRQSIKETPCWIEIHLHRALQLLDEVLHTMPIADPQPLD

Target: T1, USP1-HA (UniProt O94782)
T1 sequence: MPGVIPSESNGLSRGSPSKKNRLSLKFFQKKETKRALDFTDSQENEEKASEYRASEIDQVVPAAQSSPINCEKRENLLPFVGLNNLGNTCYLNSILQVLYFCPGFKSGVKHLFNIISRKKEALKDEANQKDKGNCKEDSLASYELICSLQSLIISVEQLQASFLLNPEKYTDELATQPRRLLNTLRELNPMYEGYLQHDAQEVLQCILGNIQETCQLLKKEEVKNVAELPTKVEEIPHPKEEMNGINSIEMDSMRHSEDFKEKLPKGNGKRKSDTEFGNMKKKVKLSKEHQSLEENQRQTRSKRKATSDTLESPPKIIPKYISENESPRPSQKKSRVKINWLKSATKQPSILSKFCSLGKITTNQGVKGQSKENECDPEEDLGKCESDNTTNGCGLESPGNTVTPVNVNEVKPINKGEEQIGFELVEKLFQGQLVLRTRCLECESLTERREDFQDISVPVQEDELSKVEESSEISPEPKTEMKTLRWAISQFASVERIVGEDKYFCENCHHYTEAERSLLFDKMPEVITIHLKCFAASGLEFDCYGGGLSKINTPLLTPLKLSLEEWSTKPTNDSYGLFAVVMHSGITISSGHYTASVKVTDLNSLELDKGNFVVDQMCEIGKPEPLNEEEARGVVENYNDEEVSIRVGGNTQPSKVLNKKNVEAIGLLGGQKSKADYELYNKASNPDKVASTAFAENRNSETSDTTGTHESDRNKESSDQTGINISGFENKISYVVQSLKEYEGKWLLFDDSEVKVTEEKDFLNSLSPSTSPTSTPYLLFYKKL
Assay: co-IP; Co-IP in 293T cells: USP1-HA with TBLR1-Flag (reciprocal, tag antibodies) or with RAC1, SMAD4, BMP4 or PPP2R1

SMAD4 (from UniProt Q13485 1-552)
binding: no binding
